“And” between values parts separate entries of the source, which are not always exact repeats. Equal entries are not always repeated. The list shows a part of the results. This data set is noisy: repeats of one test often differ as much as different tests do.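 HEK293T cells were given each compound shortly before transfection with a reporter in which red mCherry is followed by the SARS-CoV-2 frameshift element and then GFP in the −1 frame, so GFP appears only after frameshifting.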
What follows are compounds tested on SARS-CoV-2 -1 PRF reporter mCherry-FSE-GFP(-1) (assay: mCherry (red) intensity as percent of control; higher = higher upstream reporter expression). Conditions: 10 µM; 24 h; HEK293T.

Row | SMILES | mCherry
1 | CCN(CCCc1ccccc1)CCCc1ccccc1 | 64.6%
2 | CCCc1c(OCCCOc2cc(O)c(-c3ccc(F)cc3)cc2CC)cccc1Oc1ccccc1C(=O)O [etalocib] | 81.1%
3 | CC(C)NC(=O)[C@H]1CCC[C@H]1Nc1nc(Nc2ccc(C(=O)N(C)C3CCN(C)CC3)cc2)ncc1Cl | 84.7%
4 | CN(C)CCC(O)(c1ccccc1)c1ccccc1Cl (stereo not given) [clofedanol] | 106%
5 | CSc1ccc(OCc2ncc([N+](=O)[O-])n2C)cc1 [fexinidazole] | 110%
6 | CCCCCCOc1ccccc1C(N)=O [exalamide] | 115%
7 | NCCC(O)(P(=O)(O)O)P(=O)(O)O [pamidronic acid] | 96.8%
8 | C[C@H]1COc2c(C3(N)CC3)c(F)cc3c(=O)c(C(=O)O)cn1c23 | 144%
9 | CC(=O)O[C@H](CC(=O)[O-])C[N+](C)(C)C [Acetylcarnitine] | 88.7%
10 | NCCC(O)(P(=O)(O)O)P(=O)(O)O [Pamidronate·2Na·5H2O] | 77.2%
11 | CC(=O)O[C@]1(C(C)=O)CC[C@H]2[C@@H]3C=C(C)C4=CC(=O)CC[C@]4(C)[C@H]3CC[C@@]21C [Megestrol Acetate] | 120%
12 | OCCOCCN1CCN(C(c2ccccc2)c2ccccc2)CC1 [decloxizine] | 126%
13 | Clc1ccc(C(Cn2ccnc2)OCc2ccsc2Cl)c(Cl)c1 (stereo not given) [tioconazole] | 126%
14 | CC(=O)c1ccc2c(c1)C(=O)C1(CC1)O2 [spizofurone] | 99.5%
15 | N=C(N)C(O)c1ccc2c(c1)OCO2 (stereo not given) [olmidine] | 108%
16 | NOCc1ccc(Br)c(O)c1 [brocresine] | 118%
17 | COC(=O)[C@H](c1ccccc1Cl)N1CCc2sccc2C1 [clopidogrel] | 89.4% and 105%
18 | CCCCC(=O)O[C@]1(C(=O)CO)CC[C@H]2[C@@H]3CCC4=CC(=O)CC[C@]4(C)[C@H]3[C@@H](O)C[C@@]21C | 87.5%
19 | OC[C@H]1O[C@@H](n2cnc3c2N=CNC[C@H]3O)C[C@@H]1O [pentostatin] | 96.4%
20 | OCC(O)C(O)C(O)C(O)CO (stereo not given) | 105%

Random excerpt: 2 records from the list.
Row | SMILES | mCherry
16 | NOCc1ccc(Br)c(O)c1 [brocresine] | 118%
7 | NCCC(O)(P(=O)(O)O)P(=O)(O)O [pamidronic acid] | 96.8%

Next part.

Row | SMILES | mCherry
21 | O=c1ccc2ccccc2o1 | 112%
22 | CC(NCCC(c1ccccc1)c1ccccc1)c1ccccc1 (stereo not given) [fendiline] | 120%
23 | CCCCCCCCCCCCCCCC[N+](C)(C)C [cetrimonium bromide] | 18.6%
24 | CC#CCC(C)[C@H](O)/C=C/[C@@H]1[C@H]2C/C(=C/CCCC(=O)O)C[C@H]2C[C@H]1O (stereo not given in full) [iloprost] | 82.4%
25 | O=C1O[C@H]([C@@H](O)CO)C(O)=C1O [Vitamin C] | 74.8%
26 | CCc1ncnc2cc(OC)c(OC)cc12 [quazodine] | 87.2%
27 | O=C(O)c1cccc(/C=C2/C[C@@H]3[C@@H](/C=C/[C@@H](O)C4CCCCC4)[C@H](O)C[C@@H]3O2)c1 [taprostene] | 75.2%
28 | CN(C)CCn1cnc2c1c(=O)n(C)c(=O)n2C [dimethazan] | 89.8%
29 | NS(=O)(=O)c1ccc(NCS(=O)(=O)O)cc1 [mesulfamide] | 101%
30 | Cc1cc2c(s1)Nc1ccccc1N=C2N1CCN(C)CC1 | 88.6%
31 | CC(=O)c1ccc2c(c1)N(CCCN1CCC(CCO)CC1)c1ccccc1S2 [piperacetazine] | 88.1%
32 | CN(C)CCOC(C)(c1ccccc1)c1ccc(Cl)cc1 (stereo not given) [chlorphenoxamine] | 96.3%
33 | Nc1ccc(S(=O)(=O)Nc2ncccn2)cc1 [sulfadiazine] | 117% and 123%
34 | CC(C)c1cc(C(C)C)c(CC(=O)NS(=O)(=O)Oc2c(C(C)C)cccc2C(C)C)c(C(C)C)c1 [avasimibe] | 57.7%
35 | C=C1CC[C@H](O)C/C1=C/C=C1\CCC[C@]2(C)[C@@H]([C@H](C)CCCC(C)(C)O)CC[C@@H]12 [calcifediol] | 107% and 88.1%
36 | CCc1oc2ccccc2c1C(=O)c1cc(I)c(O)c(I)c1 [benziodarone] | 105%
37 | CC12CC3CC(C)(C1)CC(N)(C3)C2 [memantine] | 105% and 103%
38 | CC(C)(C)NCC(O)c1cc(Br)no1 (stereo not given) [broxaterol] | 104%
39 | CC1=C(C(=O)O)N2C(=O)[C@@H](NC(=O)[C@H](N)C3=CCC=CC3)[C@H]2SC1 [Velosef] | 113%
40 | CN(C)c1ccc(O)c2c1C[C@H]1C[C@H]3[C@H](N(C)C)C(=O)C(C(N)=O)=C(O)[C@@]3(O)C(=O)C1=C2O [Minocycline] | 106%

Reference: the supplement of paper PMC8256030
